PubChem BioAssay AID652272 | Drosophila RNAi Screening Center | 2013
Test: 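Genes whose knock-down decreases or increases Hedgehog reporter output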 (primary screen). Cell system: Drosophila clone 8 (Cl8) cells. Reagents: long dsRNA against Drosophila genes. Measured: 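Plate reader light from a firefly reporter under a ptc promoter fragment that responds to Hedgehog, with Renilla light as transfection reference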. Scale: firefly Hh reporter signal: higher = more ptc reporter light; Renilla reference signal: higher = more Renilla control light. Hit rule: 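Called a hit if the two-replicate mean z-score lies below -2 or above +3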. Meaning of the calls: active = hit: reporter lowered or raised; inactive = not a hit.
The deposit covers about 21,000 reagents; shown is a random part of those that have a named target and a result. Of all reagents, 503 (2.4%) got an active call. 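Raw plate light values, not normalised; calls rest on replicate z-scores that were not deposited; hits include reporter decreases as well as increases.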 Names joined by + are all predicted targets of the reagent. The record does not give: the amount of reagent, the time to read-out.

The opening 2 entries, ahead of the listing:
{"target gene":"Ugt301D1 (UDP-glycosyltransferase family 301 member D1)","DRSC id":"DRSC02021","firefly Hh reporter signal, replicate 1":1.43e5,"firefly Hh reporter signal, replicate 2":56518,"Renilla reference signal, replicate 1":3520,"Renilla reference signal, replicate 2":4673,"outcome":"inactive"}
{"target gene":"tth (toothrin)","DRSC id":"DRSC19435","firefly Hh reporter signal, replicate 1":81708,"firefly Hh reporter signal, replicate 2":72560,"Renilla reference signal, replicate 1":1316,"Renilla reference signal, replicate 2":833,"outcome":"inactive"}

The list itself, from the first entry:
{"target gene":"Ugt301D1 (UDP-glycosyltransferase family 301 member D1)","DRSC id":"DRSC02021","firefly Hh reporter signal, replicate 1":1.43e5,"firefly Hh reporter signal, replicate 2":56518,"Renilla reference signal, replicate 1":3520,"Renilla reference signal, replicate 2":4673,"outcome":"inactive"}
{"target gene":"tth (toothrin)","DRSC id":"DRSC19435","firefly Hh reporter signal, replicate 1":81708,"firefly Hh reporter signal, replicate 2":72560,"Renilla reference signal, replicate 1":1316,"Renilla reference signal, replicate 2":833,"outcome":"inactive"}
{"target gene":"armi (armitage)","DRSC id":"DRSC08193","firefly Hh reporter signal, replicate 1":1.01e5,"firefly Hh reporter signal, replicate 2":68088,"Renilla reference signal, replicate 1":3591,"Renilla reference signal, replicate 2":5635,"outcome":"inactive"}
{"target gene":"CG33695 + cana","DRSC id":"DRSC01163","firefly Hh reporter signal, replicate 1":3.80e5,"firefly Hh reporter signal, replicate 2":1.62e5,"Renilla reference signal, replicate 1":24624,"Renilla reference signal, replicate 2":9346,"outcome":"active"}
{"target gene":"CG33695 + cana","DRSC id":"DRSC03503","firefly Hh reporter signal, replicate 1":1.15e5,"firefly Hh reporter signal, replicate 2":70316,"Renilla reference signal, replicate 1":3079,"Renilla reference signal, replicate 2":5459,"outcome":"inactive"}
{"target gene":"CR30029 (pseudo)","DRSC id":"DRSC06724","firefly Hh reporter signal, replicate 1":1.15e5,"firefly Hh reporter signal, replicate 2":66091,"Renilla reference signal, replicate 1":2785,"Renilla reference signal, replicate 2":5591,"outcome":"inactive"}
{"target gene":"Vha16-5 (Vacuolar H[+] ATPase 16kD subunit 5)","DRSC id":"DRSC02986","firefly Hh reporter signal, replicate 1":1.34e5,"firefly Hh reporter signal, replicate 2":55248,"Renilla reference signal, replicate 1":3443,"Renilla reference signal, replicate 2":4707,"outcome":"inactive"}
{"target gene":"lectin-24Db","DRSC id":"DRSC00553","firefly Hh reporter signal, replicate 1":1.09e5,"firefly Hh reporter signal, replicate 2":1.18e5,"Renilla reference signal, replicate 1":4152,"Renilla reference signal, replicate 2":4992,"outcome":"inactive"}
{"target gene":"CG12438","DRSC id":"DRSC02167","firefly Hh reporter signal, replicate 1":81040,"firefly Hh reporter signal, replicate 2":51984,"Renilla reference signal, replicate 1":1589,"Renilla reference signal, replicate 2":4677,"outcome":"inactive"}
{"target gene":"Orc1 (Origin recognition complex subunit 1)","DRSC id":"DRSC07496","firefly Hh reporter signal, replicate 1":4.69e5,"firefly Hh reporter signal, replicate 2":73889,"Renilla reference signal, replicate 1":4045,"Renilla reference signal, replicate 2":4045,"outcome":"inactive"}
{"target gene":"CG34033","DRSC id":"DRSC05190","firefly Hh reporter signal, replicate 1":1.15e5,"firefly Hh reporter signal, replicate 2":2.01e5,"Renilla reference signal, replicate 1":2985,"Renilla reference signal, replicate 2":9472,"outcome":"inactive"}
{"target gene":"CG33263","DRSC id":"DRSC10108","firefly Hh reporter signal, replicate 1":29952,"firefly Hh reporter signal, replicate 2":40720,"firefly Hh reporter signal, replicate 3":61830,"Renilla reference signal, replicate 1":4125,"Renilla reference signal, replicate 2":4408,"outcome":"inactive"}
